In patent publication US20110195027A1:
Results are given in words; binding and its absence hold for the method and conditions named. Some entries that bind do so weakly or less than the wild type.

Protein sequences, listed by entry. Tags and fused reporters are not part of them. Lines headed by an entry give the natural chain unless they say otherwise; changes in a name come on top. Residues count along the entry.
UniProt P21926, residues 2-228: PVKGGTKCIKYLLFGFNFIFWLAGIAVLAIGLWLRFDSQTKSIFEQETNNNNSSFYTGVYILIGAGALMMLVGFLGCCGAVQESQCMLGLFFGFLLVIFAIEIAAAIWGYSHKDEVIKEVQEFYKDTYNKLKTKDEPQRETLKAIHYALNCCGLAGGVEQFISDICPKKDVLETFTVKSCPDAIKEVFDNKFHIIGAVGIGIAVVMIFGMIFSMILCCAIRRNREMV

What was measured:
[1] = biological target: CD9 on cancer cell lines (2774, UO31, AsPC-1, MIA PaCa) (human) (UniProt P21926); assay: FACS with whole IgG supernatant on ovarian cancer cell line
[2] = biological target: CD9 on cancer cell lines (2774, UO31, AsPC-1, MIA PaCa) (human) (UniProt P21926); assay: FACS
[3] = biological target: CD9-ECL2 mutant M4 (human, with rat residues) (UniProt P21926); assay: ELISA, antibody coated

Measured: binding

B1: 10E4 whole IgG (antibody, V domains shown)
VH: MAQVQLVQSGGGLVQPGRSLRLSCAASGFTFDDFAMHWVRQAPGKGLEWVAGISWNSGDIRYADSVRGRFTISRDNAKNSLFLQMNSLRAEDTAVYYCARSPVGTTYFDYWGQGALITVSS
VL: DIQMTQSPSSLSASVGDRVTITCRASQGISSYLAWYQQKPGKAPKLLIYAASTLQSEVPSRFSGSGSGTDFTLTISSLQPEDFATYYCQQLNIFPLTFGGTKVDIKR
binds: all assays above
